Patent US20260021103A1, “IKZF2 AND CK1-ALPHA DEGRADING COMPOUNDS AND USES THEREOF” (President and Fellows of Harvard College, priority 2022, published 2026)
For at least one compound, name, drawing or mass did not settle the structure.

The chains behind the UniProt entries cited, without tags or fusion partners. Where a name states a change or a piece, a line headed by the entry shows the natural chain unless it says otherwise.
UniProt P15170, whole entry: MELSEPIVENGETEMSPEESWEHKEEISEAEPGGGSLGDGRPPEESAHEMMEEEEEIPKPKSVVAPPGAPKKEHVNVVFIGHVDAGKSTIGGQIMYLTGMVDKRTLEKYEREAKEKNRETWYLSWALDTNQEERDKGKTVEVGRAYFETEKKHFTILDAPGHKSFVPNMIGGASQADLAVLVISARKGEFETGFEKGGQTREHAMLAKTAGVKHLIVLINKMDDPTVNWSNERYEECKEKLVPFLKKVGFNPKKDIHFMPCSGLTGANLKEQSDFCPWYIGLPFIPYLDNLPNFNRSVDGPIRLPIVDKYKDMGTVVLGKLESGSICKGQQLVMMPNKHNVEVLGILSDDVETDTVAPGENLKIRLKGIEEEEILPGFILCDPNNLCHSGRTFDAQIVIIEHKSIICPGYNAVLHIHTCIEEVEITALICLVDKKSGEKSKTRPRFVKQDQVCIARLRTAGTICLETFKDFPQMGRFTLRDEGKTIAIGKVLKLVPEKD
UniProt Q96SW2: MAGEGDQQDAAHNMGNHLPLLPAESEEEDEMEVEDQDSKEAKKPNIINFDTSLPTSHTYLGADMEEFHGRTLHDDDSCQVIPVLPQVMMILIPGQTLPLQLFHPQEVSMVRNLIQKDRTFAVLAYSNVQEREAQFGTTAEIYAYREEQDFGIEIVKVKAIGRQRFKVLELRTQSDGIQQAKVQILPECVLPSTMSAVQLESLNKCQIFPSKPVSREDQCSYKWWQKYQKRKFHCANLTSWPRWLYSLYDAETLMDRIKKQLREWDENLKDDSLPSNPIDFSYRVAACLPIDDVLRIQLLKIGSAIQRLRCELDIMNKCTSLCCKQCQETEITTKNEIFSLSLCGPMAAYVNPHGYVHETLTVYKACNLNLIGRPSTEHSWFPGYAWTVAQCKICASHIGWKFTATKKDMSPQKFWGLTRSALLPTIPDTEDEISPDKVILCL

Target: GSPT1 (Homo sapiens, UniProt P15170+Q96SW2)
Assay: Western blot of NCI-H1048 cells for GSPT1
Assay type: cell-based
Conditions: 24 h

**Q.** With COc1ccc2cc(C(=O)Nc3ccc4c(c3)CN(C3CCC(=O)NC3=O)C4=O)ccc2c1 (stereo not shown) [DEG-35, N-(2-(2,6-dioxopiperidin-3-yl)-1-oxoisoindolin-5-yl)-6-methoxy-2-naphthamide] as the compound, how does the “GSPT1 degradation by Western blot (in words)” value read?
**A.** The value was “significant GSPT1 degradation at nanomolar concentrations”.
